Tested on: LS174 cells
Assay: Confocal fluorescence localization of compound in LS174 cells
Assay type: cell-based
Conditions: 10 μM

`CCN(CC)c1ccc(/C=C/c2c(F)cccc2F)cc1` [4s, (E)-4-(2,6-Difluorostyryl)-N,N-diethylaniline] was tested, and the “subcellular localization of compound at 2 h” value (2 h) was “localized throughout the nucleus and cytoplasm” and the “nuclear levels of compound after 12 h” value (after 12 h) was “decreased”.

Source: US8664276B2, “Stilbene analogs and methods of treating cancer” (University of Kentucky Research Foundation, priority 2011, dated 2014)
